Library screening results

The values are deposited in ChEMBL (CHEMBL3988442, “University of Dundee, Small-Polar-MMV Screening Library” (2021)).

Results are given as percent effect. The controls that fix the scale are not given in the record; negative values are as filed. Compounds were drawn at random from those tested, without regard to their results. Two or more numbers in one place are separate tests of the same structure; such repeats can differ widely.

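Viability assay of Plasmodium falciparum sporozoites; the read-out is not stated. The concentration is filed as 10 mM, unlikely as a test dose, so the dose is not known. Direction is inferred from retests: higher values go with lower viability. Strong results were mostly tested again. Size under these conditions: about 34,000 compounds, about 280 of them at 50% or above in at least one test.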

- CCn1c(C2CCCN2Cc2noc(C(C)(C)C)n2)nc2ccccc21 (stereo not shown) | 9.49%
- Nc1nc(C2CCN(C(=O)c3cnco3)CC2)cs1 | 7.062%
- CC(=O)c1ccc(N2CCN(C(=O)NCc3cc[nH]n3)CC2)cc1 | 0.9323%
- CC(c1cc(F)ccc1F)N(C)C(=O)NCc1ccnc(N(C)C)c1 (stereo not shown) | 5.037%
- CSc1ccsc1C(=O)N1CCN(CC(C)(C)O)CC1 | -12.41%
- Cc1cc(C(=O)NCc2ccc(-c3n[nH]cc3C(=O)N(C)C)cc2)on1 | -8.158%
- COc1ccc(NC(=O)C2CCOC2)c(N2CCN(C(C)=O)CC2)n1 (stereo not shown) | -7.215%
- O=C(Nc1nc2c(s1)CN(S(=O)(=O)C1CC1)CC2)c1cccc(Cl)c1 | 11.51% & -15.08%
- [H][C@]12CC[C@]([H])(CN(Cc3cccc(OCc4ccccn4)c3)C1)N(C)C2=O | -14.17% & -8.272%
- CN(C)CCN1CCC(CNCc2c[nH]nc2C(C)(C)C)CC1 | 20.32%
- CC(C)c1noc(CN2CCC(c3ccnn3CCO)CC2)n1 | 12.54%
- CCc1ncc2c(n1)CN(Cc1nc(-c3ccoc3)no1)CC2 | 14.26% & -8.348% & 15.28%
- O=C(CCOc1ccc(Br)cc1)N1CCN(c2cnccn2)CC1 | 8.305%
- O=C(C1CCOC1)N1CCc2ncc(CNc3ccccn3)n2CC1 (stereo not shown) | -0.3356%
- CNC(=O)CS(=O)(=O)C1CCN(S(=O)(=O)c2c(F)cccc2F)CC1 | -6.966%
- CCN(CC)Cc1ccc(C(=O)N2CCN(CC(C)O)CC2)cc1 (stereo not shown) | 0.16%
- COCCN(Cc1cccc(C#N)c1)Cc1nc(C)no1 | 48.82% & 52.01%
- CNc1ccc(C2CN(c3cc(C)ncn3)CCO2)nc1 (stereo not shown) | 5.518%
- [H][C@@]12CCCN1C[C@@H](CCSC)N(Cc1cn(C)nc1C)C2 | -3.611%
- COc1ccc(CNCC(O)c2cccc(O)c2)cc1Br (stereo not shown) | -25.38%
- Cc1[nH]c2c(C)cccc2c1CC(=O)N(C)CCN(C)C.O=C(O)CC(O)(CC(=O)O)C(=O)O | 5.826%
- NC(=O)c1ccc(OCC(=O)N2CCCC(n3cccn3)C2)cc1 (stereo not shown) | -11.56%
- COc1cc(CNCCc2cnn(C)c2)cc2c1OCCO2 | -0.8244%
- CCn1ccnc1CNCC(c1ccc(C)s1)N1CCOCC1 (stereo not shown) | 13.94% & -2.56% & 2.339%
- O=C(O)C(F)(F)F.O=C(O)C(F)(F)F.[H][C@@]12OCCN(Cc3nccs3)[C@@]1([H])CC[C@H]2OCCN1CCCC1 | 1.091%
- Cc1cc(-c2cnc(N3CCC(O)CC3)nc2-c2cccnc2C)on1 | 7.687%
- CCn1cnnc1CNC(=O)N1CCOCC1 | -25.49%
- CCN1CCCC(CNC(=O)CCc2ccc(OC)c(F)c2)C1 (stereo not shown) | -9.33%
- O=C(O)C(F)(F)F.O=C(O)C(F)(F)F.[H][C@@]12C[C@@H](Oc3cccc(F)c3)CN1CCN(Cc1ccccn1)C2 | -3.73%
- Cc1cc(OCCC(=O)NCc2ccc(F)cc2)nnc1C | 1.961%
- Cn1c(CN2CCC(O)CC2)nnc1C1CCCN(C(=O)C2CNC2)C1 (stereo not shown) | 3.197%
- NCc1cnn(-c2ccccc2C(=O)NCc2ccncc2)c1 | 11.73%
- CCc1n[nH]c(C2CN(C(=O)c3cscn3)CCO2)n1 (stereo not shown) | 6.02%
- CN(C)c1ccc(C(=O)N2CCC(c3cc4cnccc4[nH]3)CC2)cc1 | 5.069%
- O=C(Cc1ccc(Cl)cc1)N1CCC(O)(C(F)(F)F)C1 (stereo not shown) | -17.6%
- CCSc1ccc(C(=O)NCCc2nnc(-c3ccco3)[nH]2)cn1 | 3.186%
- Cc1noc(C)c1C(=O)Nc1ccc2ncn(CC(C)C)c(=O)c2c1 | -8.516%
- O=C(Cn1c(=O)n(Cc2ccco2)c2ncccc21)NC1CCCC1 | -2.343%
- CC(Oc1ccccc1C#N)C(=O)NC1CC1 (stereo not shown) | 11.46%
- CNS(=O)(=O)c1cccc(C(C)NCc2ccco2)c1 (stereo not shown) | 0.7684%
- O=C(c1[nH]nc(C2CC2)c1Cl)N1CCCC1 | -32.9% & -32.97%
- CCn1nccc1CNC(=O)C1CC1 | 4.58%
- Cc1cnn(C2CCCN(C(=O)c3c(C)oc(C)c3C)C2)c1 (stereo not shown) | -13.04% & -22.35%
- O=C(O)C(F)(F)F.[H][C@]12CCC(=O)N(c3cccnc3)[C@@]1([H])CCN2C(=O)CC1CC1 | -4.571%
- CN(Cc1nnc(C2CC2)n1C)S(=O)(=O)c1ccccc1F | -15.53%
- Cc1cc(C)c2nc(CN3CCCC(c4cc[nH]n4)C3)cc(O)c2c1 (stereo not shown) | -1.529%
- CN(C)[C@@H]1CCN(C(=O)NC2CCCC2)[C@H]1Cc1cnn(C)c1.O=C(O)C(F)(F)F | -11.88%
- CC(C)N(C)Cc1nnc2n1CCN(Cc1ccncc1)CC2.O=C(O)C(F)(F)F.O=C(O)C(F)(F)F.O=C(O)C(F)(F)F | 7.9%
- O=C(CCc1ccccc1F)N1CCC(Nc2cccnn2)CC1 | 2.935%
- CNC(=O)CN(C)c1nc(-c2ccncc2)nc2c1CCN(C(C)=O)C2 | -8.628%

Once more, the final 3:

{"compound": "CC(C)N(C)Cc1nnc2n1CCN(Cc1ccncc1)CC2.O=C(O)C(F)(F)F.O=C(O)C(F)(F)F.O=C(O)C(F)(F)F", "percent effect": 7.9}
{"compound": "O=C(CCc1ccccc1F)N1CCC(Nc2cccnn2)CC1", "percent effect": 2.935}
{"compound": "CNC(=O)CN(C)c1nc(-c2ccncc2)nc2c1CCN(C(C)=O)C2", "percent effect": -8.628}